Taken from: PubChem BioAssay AID1053208 (Peter MacCallum Cancer Centre, 2014)
Test: 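Synthetic lethal interactions between gene loss and doxorubicin in osteosarcoma cells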 (primary screen). Cells: mouse osteosarcoma cells, early-passage culture from an engineered mouse model of fibroblastic bone tumour. Reagent: siRNA pool against mouse genes, 40 nM. Duration: about 120 h (48 h before drug, then 72 h with drug). Treatment: doxorubicin 100 nM for 72 h, roughly 30-40% inhibitory dose. Measurement: 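Luminescent ATP signal taken as viability with or without 100 nM doxorubicin for 72 h; mean of two wells set against non-targeting siRNA and turned into robust z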. Reading the numbers: viability z-score with doxorubicin: higher = more viable cells under doxorubicin; viability z-score without drug: higher = more viable cells with knock-down alone. Rule for the call: 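a pool counts as active when its viability z-score with doxorubicin is -2 or below and its z-score without drug lies between -2 and 2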.
In all, the deposit lists about 17,000 reagents; this is a part drawn at random. 788 of all reagents (4.7%) were called active. 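Calls rest on z-score classes alone; an extra cut-off of viability at most 70% of control was not applied to them.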 Not all columns of the deposit are shown.

Ca5b (carbonic anhydrase 5B) [SID152314077] → combined z-score class: no change with or without drug; viability z-score with doxorubicin: -0.45; viability z-score without drug: -1.18; outcome: inactive
Ptpn18 (protein tyrosine phosphatase, non-receptor type 18) [SID152337738] → combined z-score class: no change with or without drug; viability z-score with doxorubicin: 1.35; viability z-score without drug: 0.84; outcome: inactive
Ap1s3 (adaptor-related protein complex AP-1, sigma 3) [SID152273827] → combined z-score class: no change with or without drug; viability z-score with doxorubicin: 0.56; viability z-score without drug: 0.67; outcome: inactive
Msi1 (musashi RNA-binding protein 1) [SID152265006] → combined z-score class: no change with or without drug; viability z-score with doxorubicin: -0.45; viability z-score without drug: -1.35; outcome: inactive
Phldb1 (pleckstrin homology like domain, family B, member 1) [SID152282318] → combined z-score class: no change with or without drug; viability z-score with doxorubicin: -0.67; viability z-score without drug: 1.18; outcome: inactive
Lctl (lactase-like) [SID152310544] → combined z-score class: no change with or without drug; viability z-score with doxorubicin: 1.57; viability z-score without drug: 0.84; outcome: inactive
Ckmt1 (creatine kinase, mitochondrial 1, ubiquitous) [SID152340987] → combined z-score class: no change with or without drug; viability z-score with doxorubicin: 0; viability z-score without drug: -0.17; outcome: inactive
Il15 (interleukin 15) [SID152273616] → combined z-score class: no change with or without drug; viability z-score with doxorubicin: 1.57; viability z-score without drug: 0.84; outcome: inactive
Cpt2 (carnitine palmitoyltransferase 2) [SID152303901] → combined z-score class: no change with or without drug; viability z-score with doxorubicin: 0.79; viability z-score without drug: -1.18; outcome: inactive
Serpinb11 [SID152294943] → combined z-score class: no change with or without drug; viability z-score with doxorubicin: -0.45; viability z-score without drug: -0.17; outcome: inactive
Lins1 (lines homolog 1) [SID152312986] → combined z-score class: no change with or without drug; viability z-score with doxorubicin: -0.34; viability z-score without drug: -0.51; outcome: inactive
Spred1 (sprouty protein with EVH-1 domain 1, related sequence) [SID152263204] → combined z-score class: no change with or without drug; viability z-score with doxorubicin: 0.45; viability z-score without drug: 0.67; outcome: inactive
Hsfy2 (heat shock transcription factor, Y-linked 2) [SID152334645] → combined z-score class: no change with or without drug; viability z-score with doxorubicin: -1.24; viability z-score without drug: -0.84; outcome: inactive
Adam6a (a disintegrin and metallopeptidase domain 6A) [SID152310830] → combined z-score class: no change with or without drug; viability z-score with doxorubicin: 0.56; viability z-score without drug: 0.34; outcome: inactive
Uchl3 [SID152296442] → combined z-score class: no change with or without drug; viability z-score with doxorubicin: 0.67; viability z-score without drug: 0.67; outcome: inactive
Lamc2 (laminin, gamma 2) [SID152326204] → combined z-score class: high cell count without drug only; viability z-score with doxorubicin: 1.69; viability z-score without drug: 3.2; outcome: inactive
Rmdn1 (regulator of microtubule dynamics 1) [SID152308993] → combined z-score class: no change with or without drug; viability z-score with doxorubicin: 0.34; viability z-score without drug: -0.51; outcome: inactive
Glb1l2 (galactosidase, beta 1-like 2) [SID152318703] → combined z-score class: no change with or without drug; viability z-score with doxorubicin: -0.22; viability z-score without drug: 0.51; outcome: inactive
Arpc2 (actin related protein 2/3 complex, subunit 2) [SID152338775] → combined z-score class: no change with or without drug; viability z-score with doxorubicin: 1.12; viability z-score without drug: -0.17; outcome: inactive
Kcnd2 [SID152273804] → combined z-score class: no change with or without drug; viability z-score with doxorubicin: 0.67; viability z-score without drug: 1.18; outcome: inactive
Abhd14a (abhydrolase domain containing 14A) [SID152329320] → combined z-score class: no change with or without drug; viability z-score with doxorubicin: 0.22; viability z-score without drug: 1.85; outcome: inactive
Or5ac19 (olfactory receptor family 5 subfamily AC member 19) [SID152318880] → combined z-score class: no change with or without drug; viability z-score with doxorubicin: -0.34; viability z-score without drug: 0.51; outcome: inactive
Eif2s3y [SID152270266] → combined z-score class: no change with or without drug; viability z-score with doxorubicin: 0.34; viability z-score without drug: 0.51; outcome: inactive
Timp1 (tissue inhibitor of metalloproteinase 1) [SID152293002] → combined z-score class: no change with or without drug; viability z-score with doxorubicin: 0.22; viability z-score without drug: -0.17; outcome: inactive
Jsrp1 (junctional sarcoplasmic reticulum protein 1) [SID152279290] → combined z-score class: no change with or without drug; viability z-score with doxorubicin: 0; viability z-score without drug: -0.84; outcome: inactive
Plcz1 (phospholipase C, zeta 1) [SID152288692] → combined z-score class: no change with or without drug; viability z-score with doxorubicin: -0.67; viability z-score without drug: -0.17; outcome: inactive
Sprr2e (small proline-rich protein 2E) [SID152313551] → combined z-score class: no change with or without drug; viability z-score with doxorubicin: 0.67; viability z-score without drug: 0; outcome: inactive
Rnpepl1 (arginyl aminopeptidase (aminopeptidase B)-like 1) [SID152318426] → combined z-score class: low cell count with doxorubicin only; viability z-score with doxorubicin: -3.6; viability z-score without drug: -1.85; outcome: active

5 entries from above in another layout:
gene symbol	PubChem SID	combined z-score class	viability z-score with doxorubicin	viability z-score without drug	outcome
Eif2s3y	SID152270266	no change with or without drug	0.34	0.51	inactive
Timp1 (tissue inhibitor of metalloproteinase 1)	SID152293002	no change with or without drug	0.22	-0.17	inactive
Jsrp1 (junctional sarcoplasmic reticulum protein 1)	SID152279290	no change with or without drug	0	-0.84	inactive
Plcz1 (phospholipase C, zeta 1)	SID152288692	no change with or without drug	-0.67	-0.17	inactive
Sprr2e (small proline-rich protein 2E)	SID152313551	no change with or without drug	0.67	0	inactive
